Experimental data published in article PMC6831569.
Results are given in words; binding and its absence hold for the method and conditions named.

Biological target: T1, E. coli acyl carrier protein, single domain (ACP1) (E. coli), P0A6A8
T1 chain: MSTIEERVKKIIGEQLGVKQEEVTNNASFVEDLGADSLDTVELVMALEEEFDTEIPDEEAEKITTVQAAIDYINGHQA
Assay: SAXS; proteins in 20 mM NaH2PO4, 50 mM NaCl, pH 7.8, 1-3 mg/mL, flowed through a capillary at the LiX beamline; models by DAMMIF; both purified
Conditions: remark: other sources report otherwise

binding: no binding (tested: 1–3 mg/mL)
B1: E. coli acyl carrier protein, single domain (ACP1), P0A6A8 1-78 (protein)
chain: T1 chain
